Results are given in words; binding and its absence hold for the method and conditions named. Binding seen in cells or lysates may run through a third protein. Some entries that bind do so weakly or less than the wild type.
How the values were obtained:
[1] = biological target: OX40 (human (endogenous in HUVEC)) (UniProt P43489); test: co-IP; HUVECs treated with vehicle for 48 hours; lysates immunoprecipitated with an anti-OX40 antibody, blotted
[2] = biological target: OX40 (human (endogenous in HUVEC)) (UniProt P43489); test: co-IP; HUVECs treated with human OX40L protein (100 ng/mL) for 48 hours; lysates immunoprecipitated with an anti-OX40 antibody, blotted

The chains behind the UniProt entries cited, without tags or fusion partners. Residues count along the entry.
UniProt P43489, residues 29-277: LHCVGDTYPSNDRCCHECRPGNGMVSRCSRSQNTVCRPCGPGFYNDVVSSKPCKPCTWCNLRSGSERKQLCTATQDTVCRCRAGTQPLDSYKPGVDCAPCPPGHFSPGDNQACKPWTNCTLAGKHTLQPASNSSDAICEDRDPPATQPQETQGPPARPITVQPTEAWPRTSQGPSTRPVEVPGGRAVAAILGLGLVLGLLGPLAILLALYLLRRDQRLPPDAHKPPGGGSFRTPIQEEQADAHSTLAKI

binding [1]: binds weakly | binding [2]: binds
B1: Spns lysolipid transporter 2 (Spns2) (protein, UniProt Q8IVW8 1-549)
chain: MMCLECASAAAGGAEEEEADAERRRRRRGAQRGAGGSGCCGARGAGGAGVSAAGDEVQTLSGSVRRAPTGPPGTPGTPGCAATAKGPGAQQPKPASLGRGRGAAAAILSLGNVLNYLDRYTVAGVLLDIQQHFGVKDRGAGLLQSVFICSFMVAAPIFGYLGDRFNRKVILSCGIFFWSAVTFSSSFIPQQYFWLLVLSRGLVGIGEASYSTIAPTIIGDLFTKNTRTLMLSVFYFAIPLGSGLGYITGSSVKQAAGDWHWALRVSPVLGMITGTLILILVPATKRGHADQLGDQLKARTSWLRDMKALIRNRSYVFSSLATSAVSFATGALGMWIPLYLHRAQVVQKTAETCNSPPCGAKDSLIFGAITCFTGFLGVVTGAGATRWCRLKTQRADPLVCAVGMLGSAIFICLIFVAAKSSIVGAYICIFVGETLLFSNWAITADILMYVVIPTRRATAVALQSFTSHLLGDAGSPYLIGFISDLIRQSTKDSPLWEFLSLGYALMLCPFVVVLGGMFFLATALFFVSDRARAEQQVNQLAMPPASVKV
